# Source: patent US20200308267A1
# How the values were obtained:
# VEGFD [1] = experiment: binding ELISA on coated VEGFD (Example 5.8)
# PIGF [2] = experiment: binding ELISA, coated antigen
# VEGFB [3] = experiment: binding ELISA, coated antigen
# VEGFC [4] = experiment: binding ELISA, coated antigen
# VEGFD [5] = experiment: binding ELISA, coated antigen
# VEGFB [6] = experiment: binding ELISA on coated VEGFB (Example 5.8)
# VEGFC [7] = experiment: binding ELISA on coated VEGFC (Example 5.8)
# PIGF [8] = experiment: binding ELISA on coated PIGF (Example 5.8)
Binder,binding (VEGFD [1]),binding (PIGF [2]),binding (VEGFB [3]),binding (VEGFC [4]),binding (VEGFD [5]),binding (VEGFB [6]),binding (VEGFC [7]),binding (PIGF [8])
"VEGFBII021 (VHH, not shown: small tags and cut ends) EVQLVESGGGLVQTGDSLRLSCEVSGRTFSSYSMGWFRQAQGKEREFVVAISKGGYKYDSVSLEGRFTISKDNAKNTVYLQINSLKPEDTAVYYCASSRAYGSSRLRLADTYEYWGQGTQVTVSSGGGGSGGGGSGGGGSGGGGSGGGGSGGGGSGGGGSGGGGSEVQLVESGGGLVQPGGSLRLSCVASGIRFMSMAWYRQAPGKHRELVARISSGGTTAYVDSVKGRFTISRDNSKNTVYLQMNSLKAEDTAVYYCNTFSSRPNPWGAGTQVTVSS",no binding (tested: 5e-7 M),no binding,no binding,no binding,no binding,no binding (tested: 5e-7 M),no binding (tested: 5e-7 M),no binding (tested: 5e-7 M)
"VEGFBII023 (VHH, not shown: small tags and cut ends) EVQLVESGGGLVQTGDSLRLSCEVSGRTFSSYSMGWFRQAQGKEREFVVAISKGGYKYDSVSLEGRFTISKDNAKNTVYLQINSLKPEDTAVYYCASSRAYGSSRLRLADTYEYWGQGTQVTVSSGGGGSGGGGSGGGGSGGGGSGGGGSGGGGSGGGGSGGGGSEVQLVESGGGLVQAGGSLRLSCAASGRTFSNYAMGWFRQAPGKERVLVADISSSGINTYVADAVKGRFTISRDNAKNTVYLQMNSLKPEDTAVYYCAASAWWYSQMARDNYRYWGQGTQVTVSS",no binding (tested: 5e-7 M),no binding,no binding,no binding,no binding,no binding (tested: 5e-7 M),no binding (tested: 5e-7 M),no binding (tested: 5e-7 M)
"VEGFBII23A06 (VHH, not shown: small tags and cut ends) VHH: EVQLVESGGGLVQPGDSLKLSCAFSGRTFSSYSMGWFRQAQGKEREFVVAISSGGFIYDAVSLEGRFTISRDNTKNTVYLQTPSLKPEDTAVYYCAASRAYGSSRLRLADTYDYWGQGTQVTVSS",–,no binding (tested: 500 nM),no binding (tested: 500 nM),no binding (tested: 500 nM),no binding (tested: 500 nM),–,–,–
"VEGFBII23B04 (VHH, not shown: small tags and cut ends) VHH: EVQLVESGGGLVQTGDSLRLSCEVSGRTFSSYSMGWFRQAQGKEREFVVAISKGGYKYDSVSLEGRFTISKDNAKNTVYLQINSLKPEDTAVYYCASSRAYGSSRLRLADTYEYWGQGTQVTVSS",–,no binding (tested: 500 nM),no binding (tested: 500 nM),no binding (tested: 500 nM),no binding (tested: 500 nM),–,–,–

# The remaining lines, values ahead:
binding (VEGFD [1]),binding (PIGF [2]),binding (VEGFB [3]),binding (VEGFC [4]),binding (VEGFD [5]),binding (VEGFB [6]),binding (VEGFC [7]),binding (PIGF [8]),Binder
no binding (tested: 5e-7 M),no binding,no binding,no binding,no binding,no binding (tested: 5e-7 M),no binding (tested: 5e-7 M),no binding (tested: 5e-7 M),"VEGFBII010 (VHH, not shown: small tags and cut ends) EVQLVESGGGLVQTGDSLRLSCEVSGRTFSSYSMGWFRQAQGKEREFVVAISKGGYKYDSVSLEGRFTISKDNAKNTVYLQINSLKPEDTAVYYCASSRAYGSSRLRLADTYEYWGQGTQVTVSSGGGGSGGGGSGGGGSGGGGSGGGGSGGGGSGGGGSEVQLVESGGGLVQTGDSLRLSCEVSGRTFSSYSMGWFRQAQGKEREFVVAISKGGYKYDSVSLEGRFTISKDNAKNTVYLQINSLKPEDTAVYYCASSRAYGSSRLRLADTYEYWGQGTQVTVSS"
no binding (tested: 5e-7 M),no binding,no binding,no binding,no binding,no binding (tested: 5e-7 M),no binding (tested: 5e-7 M),no binding (tested: 5e-7 M),"VEGFBII022 (VHH, not shown: small tags and cut ends) EVQLVESGGGLVQTGDSLRLSCEVSGRTFSSYSMGWFRQAQGKEREFVVAISKGGYKYDSVSLEGRFTISKDNAKNTVYLQINSLKPEDTAVYYCASSRAYGSSRLRLADTYEYWGQGTQVTVSSGGGGSGGGSEVQLVESGGGLVQPGGSLRLSCVASGIRFMSMAWYRQAPGKHRELVARISSGGTTAYVDSVKGRFTISRDNSKNTVYLQMNSLKAEDTAVYYCNTFSSRPNPWGAGTQVTVSS"
no binding (tested: 5e-7 M),no binding,no binding,no binding,no binding,no binding (tested: 5e-7 M),no binding (tested: 5e-7 M),no binding (tested: 5e-7 M),"VEGFBII024 (VHH, not shown: small tags and cut ends) EVQLVESGGGLVQTGDSLRLSCEVSGRTFSSYSMGWFRQAQGKEREFVVAISKGGYKYDSVSLEGRFTISKDNAKNTVYLQINSLKPEDTAVYYCASSRAYGSSRLRLADTYEYWGQGTQVTVSSGGGGSGGGGSGGGGSGGGGSGGGGSGGGGSGGGGSGGGGSEVQLVESGGGLVQAGGSLRLSCTASGSAFKSYRMGWFRRTPGKEDEFVASISWTYGSTFYADSVKGRFTMSRDKAKNAGYLQMNSLKPEDTALYYCAAGAQSDRYNIRSYDYWGQGTQVTVSS"
no binding (tested: 5e-7 M),no binding,no binding,no binding,no binding,no binding (tested: 5e-7 M),no binding (tested: 5e-7 M),no binding (tested: 5e-7 M),"VEGFBII025 (VHH, not shown: small tags and cut ends) EVQLVESGGGLVQAGGSLRLSCAASGRTFSNYAMGWFRQAPGKERVLVADISSSGINTYVADAVKGRFTISRDNAKNTVYLQMNSLKPEDTAVYYCAASAWWYSQMARDNYRYWGQGTQVTVSSGGGGSGGGGSGGGGSGGGGSGGGGSGGGGSGGGGSGGGGSEVQLVESGGGLVQTGDSLRLSCEVSGRTFSSYSMGWFRQAQGKEREFVVAISKGGYKYDSVSLEGRFTISKDNAKNTVYLQINSLKPEDTAVYYCASSRAYGSSRLRLADTYEYWGQGTQVTVSS"
–,no binding (tested: 500 nM),no binding (tested: 500 nM),no binding (tested: 500 nM),no binding (tested: 500 nM),–,–,–,"VEGFBII24C04 (VHH, not shown: small tags and cut ends) VHH: EVQLVESGGGLVQPGDSLKLSCVASGRTSSSYSMGWFRQAQGKEREFVVAISSGGYIYDSVSLQGRFTISRDNTKNTVYLQTPSLKPEDTAVYYCAASRAYGSSRLRLADTYDYWGQGTQVTVSS"

# No constants are given. Whether binding was seen depends on the method and setting.
